Counter-ions that a name gives are not always drawn. The name of at least one read-out is uncertain.
System: mouse
Experiment: Preliminary toxicity in the mouse
Assay type: in vivo
Details: p.o.
Protocol: Representative compounds of formula I of the invention were tested for their gastric acid secretion-inhibiting activity, for their anti-ulcer activity, as well as for their toxicity.
In Table I, which follows, the names of the compounds tested as well as the results of the testing for their gastric secretion-inhibiting activity, for their anti-ulcer activity and for their toxicity are given.

SMILES	Prel. tox mouse (dihydrochloride)	Prel. tox mouse
Cc1ccc(CSc2nc3cc4c(cc3[nH]2)OCO4)nc1 [6-[[(5-Methyl-2-pyridyl)-methyl]thio]-5H--1,3-dioxolo-(4,5-f)benzimidazole dihydrochloride]	625 mg/kg	
Cc1ccc(CSc2nc3cc4c(cc3[nH]2)OCO4)nc1 [6-[[(5-methyl-2-pyridyl)methyl]thio]-5H-1,3-dioxolo(4,5-f)benzimidazole]		5000 mg/kg
